{"source": "patent US9040105B2", "about": "“Nanocrystals and amorphous nanoparticles and method for production of the same by a low energy process” (PharmaSol GmbH, priority 2011, dated 2015)", "test": "Particle size by laser diffractometry (Mie theory)", "format": "physicochemical", "conditions": "powder dispersed in water; Coulter LS 230", "note": "For at least one compound, name, drawing or mass did not settle the structure."}
{"smiles": "C[C@@H]1O[C@@H](OC[C@H]2O[C@@H](Oc3c(-c4ccc(O)c(O)c4)oc4cc(O)cc(O)c4c3=O)[C@H](O)[C@@H](O)[C@@H]2O)[C@H](O)[C@H](O)[C@H]1O", "note": "[Rutin powder, rutin]", "values": [{"measurement": "diameter 90%", "result": 118.57, "unit": "μm"}, {"measurement": "diameter 99%", "result": 195.23, "unit": "μm"}, {"measurement": "volume median diameter 50%", "result": 10.64, "unit": "μm"}]}
